# Laboratory results: PubChem BioAssay AID540256 (National Center for Advancing Translational Sciences (NCATS), 2011)
# Screen size: about 300,000 compounds; about 3,700 (1.2%) were called active. The shares of active, inactive and inconclusive entries below differ from those in the screen. Calls come from the whole dose curve; tested in HEK293 cells. A potency beside an inconclusive call is a rough fit, not a confirmed value.
# Experiment: qHTS for Inhibitors of binding or entry into cells for Lassa Virus; note: nearly all actives have a fitted effect of over 50% in size
# Conditions: Lassa virus pseudotype entry inhibition, cell reporter; activity change, negative = inhibition: at 37.9 µM (top of the series) unless noted
# % is set by controls: 0 for no effect and ±100 for the full control effect; potency is the fitted concentration of half-maximal effect.
SMILES,Potency,"activity change, negative = inhibition"
COc1cc(C(=O)Nc2cccc(-c3nnc(-c4ccco4)o3)c2)ccc1OC(C)=O,"inconclusive: 35.5 µM [inhibitor, single point]",–
CCOc1ccccc1CNCCCSc1nnnn1C,inactive,–
CC1CC(=O)N(CC(=O)Nc2ccc(F)cc2F)c2ccccc2S1(=O)=O (stereo unspecified),"inconclusive: 17.8 µM [activator, single point]",–
CCOC(=O)c1c(-c2ccccc2)oc2ccc(O)c(CN3CCN(C)CC3)c12,"inconclusive: 20 µM [inhibitor, single point]",–
COc1ccc(NC(=O)CCS(=O)(=O)c2ccccc2)c(OC)c1,"inconclusive: 0.146 µM [activator, full curve, poor fit]",–
O=C(/C=C\c1cn(-c2ccccc2)nc1-c1cccs1)N1CCOCC1,"inconclusive: 25.1 µM [inhibitor, single point]",–
CCOc1ccc(NS(=O)(=O)c2ccc(NS(C)(=O)=O)cc2)cc1,"inconclusive: 12.6 µM [inhibitor, partial curve, poor fit]",–
Clc1cnc(N/N=C/c2cccs2)c(Cl)c1,"inconclusive: 1.26 µM [activator, single point]",–
O=C(NCC(=O)N(Cc1ccccc1)C(C(=O)NC1CCCC1)c1ccco1)c1ccco1 (stereo unspecified),"inconclusive: 8.2 µM [activator, partial curve, poor fit]",–
Cc1ccc(-n2c(SCC(=O)NCCN3C(=O)CSC3=O)nnc2-c2ccccc2)cc1C,"inconclusive: 35.5 µM [inhibitor, partial curve, poor fit]",–
COC(=O)c1ccc2nc(-c3cccc(N)c3)cn2c1,"inconclusive: 5.01 µM [inhibitor, full curve, poor fit]",–
COc1ccc(N=C2NC(=O)/C(=C/C=C/c3ccccc3)S2)cc1,active: 1 µM,–
Cc1cc(CN(C)C(=O)c2cc(COc3ccc(C)c(C)c3)on2)on1,inactive,–
Cc1ccc(CSc2cn(CC(=O)N3CCCCCC3)c3ccccc23)cc1,active: 8.91 µM,–
CC(NS(=O)(=O)c1ccc(Cl)cc1)C(c1cccs1)N1CCN(C)CC1 (stereo unspecified),"inconclusive: 35.5 µM [inhibitor, single point]",–
CN1CCN(C(=O)N2c3ccccc3C=Cc3ccccc32)CC1,"inconclusive: 35.5 µM [inhibitor, single point]",–
CN(CC(=O)Nc1sccc1C(N)=O)S(=O)(=O)c1ccc(Cl)cc1,"inconclusive: 15.8 µM [activator, partial curve, poor fit]",–
Cc1cc(NC(=O)Cc2ccccc2)cc(-c2nc3ccccc3o2)c1O,inactive,–
O=C(Cn1ncc2c1-c1ccccc1OC2)N1CCN(Cc2ccccc2)CC1,"inconclusive: 7.08 µM [inhibitor, partial curve, poor fit]",–
Cc1c(NC(=O)c2cccs2)cccc1-c1nc2ccccc2s1,inactive,–
N#CC(C#N)=C1C(=O)N(CCN2CCCCC2)c2ccccc21,inactive,–
CCOc1ccc(C(=O)NCC(=O)OCc2csc(-c3ccccc3)n2)cc1,inactive,–

# In a second layout: results already given.
SMILES	Potency	activity change, negative = inhibition
CCOC(=O)c1c(-c2ccccc2)oc2ccc(O)c(CN3CCN(C)CC3)c12	inconclusive: 20 µM [inhibitor, single point]	–
COc1ccc(NC(=O)CCS(=O)(=O)c2ccccc2)c(OC)c1	inconclusive: 0.146 µM [activator, full curve, poor fit]	–

# Additional structures:

SMILES,Potency,"activity change, negative = inhibition"
CC(NC(=O)CSc1nc2c(c(C(F)(F)F)n1)CCc1ccccc1-2)c1ccccc1 (stereo unspecified),"inconclusive: 11.2 µM [inhibitor, partial curve, poor fit]",–
COc1ccc(CCNC(=O)c2ccc(CS(=O)Cc3ccc(C)cc3)o2)cc1OC (stereo unspecified),"inconclusive: 11.2 µM [inhibitor, partial curve]",–
Cc1ccccc1-c1noc(-c2ccccc2OCC(=O)Nc2cccc([N+](=O)[O-])c2)n1,inactive,–
CCc1c(C)sc(NC(=O)c2ccc(Br)o2)c1C(=O)OC,"inconclusive: 20.6 µM [inhibitor, single point]",–
O=C(CSc1nnc2ccccn12)Nc1ccc2c(c1)OCO2,inactive,–
O=C1CN(C(=O)c2ccc(S(=O)(=O)N3CCCC3)cc2)C(c2ccccc2)c2cc(F)ccc2N1 (stereo unspecified),"inconclusive: 6.31 µM [activator, single point]",–
Cc1cccc(C)c1NC(=O)Cn1nnc(S(=O)(=O)c2ccccc2)c1N,inactive,–
CC(C)(C)OC(=O)N1CCC(c2c(C(=O)NC3CCCCC3)cnn2-c2ccc(F)cc2F)CC1,"inconclusive: 10 µM [inhibitor, partial curve, poor fit]",–
O=C1c2cccc3cccc(c23)C(=O)N1CC1CCN(CC(O)COCc2ccc3c(c2)OCO3)CC1 (stereo unspecified),"inconclusive: 12.6 µM [inhibitor, partial curve, poor fit]",–
CCN(CC)P(=O)(Nc1ccccc1Br)c1ccc(N(C)C)cc1NC(=O)c1ccco1 (stereo unspecified),inactive,–
O=C1NCCN(Cc2ccc(Cl)c(F)c2)C1CC(=O)N1CCc2ccccc2C1 (stereo unspecified),"inconclusive: 10 µM [inhibitor, partial curve, poor fit]",–
COc1ccc(OCCCC(=O)OCC(=O)Nc2ccc(Cl)cn2)cc1,"inconclusive: 3.16 µM [activator, single point]",–
COc1ccc(NC(=O)C[C@H]2C(=O)N(C3CCCCC3)C[C@@H]2C)cc1,"inconclusive: 0.141 µM [inhibitor, full curve, poor fit]",–
COC(=O)c1ccc(NC(=O)C(=O)N2CCN(C(=S)Nc3ccc(OC)cc3)CC2)cc1,"inconclusive: 35.5 µM [inhibitor, partial curve, poor fit]",–
CCOc1c(Cl)cc(CNc2ccc(N3CCCC3)cc2)cc1OC,"inconclusive: 20 µM [inhibitor, partial curve, poor fit]",–
O=C(c1cccc(S(=O)(=O)N2CCc3ccccc32)c1)N1CCN(c2ccccn2)CC1,"inconclusive: 2.82 µM [inhibitor, full curve, poor fit]",–
COc1ccc(-c2nc3sc(CCNC(=O)c4ccc(Br)o4)c(C)n3n2)cc1,"inconclusive: 25.1 µM [inhibitor, partial curve, poor fit]",–
O=C(Cn1ncc2c3ccccc3n(Cc3cccc(Cl)c3)c2c1=O)N1CCC2(CC1)OCCO2,"inconclusive: 14.1 µM [inhibitor, single point]",–
Cc1ccc(C(=O)NCCSC2CCCCC2)cc1S(=O)(=O)Nc1ccccc1,"inconclusive: 5.8 µM [inhibitor, partial curve, poor fit]",–
COc1cc(NC(=O)C2=C(N3CCOCC3)/C(=C\c3ccc(N(C)C)cc3)CCC2)cc(OC)c1OC,"inconclusive: 22.4 µM [inhibitor, single point]",–
COc1ccccc1CC(=O)N1CCCC1,inactive,–
O=C(NCCS(=O)(=O)N1CCN(c2ccccc2)CC1)C1CC1,inactive,–

SMILES,Potency,"activity change, negative = inhibition"
COC(=O)c1ccccc1NS(=O)(=O)c1cc2c(cc1C)N(C)CCO2,active: 10 µM,–
N#C/C(=C\c1ccc(-c2nc3ccccc3s2)o1)C(N)=O,"inconclusive: 35.5 µM [inhibitor, single point]",–
O=C(Nc1ccc(NC(=S)NC(=O)C(c2ccccc2)c2ccccc2)cc1)c1ccccc1,"inconclusive: 10 µM [inhibitor, partial curve]",–
CCCCCCCNc1cccc(C)c1,inactive,–
CC(=O)NC(Cc1ccccc1)Cc1ccccc1,"inconclusive: 1.12 µM [inhibitor, full curve, poor fit]",–
Cc1cccc(S(=O)(=O)c2cn(Cc3ccccc3)c3cc(N4CCCCC4)c(F)cc3c2=O)c1,inactive,–
CNC(=O)O/N=C(\N)Cc1csc2ccccc12,"inconclusive: 6.31 µM [inhibitor, full curve, poor fit]",–
O=C(Nc1ccc2c(c1)CCCN2C(=O)c1ccco1)c1cc([N+](=O)[O-])ccc1Cl,active: 2.51 µM,–
COc1ccc(N2CCN(C(=O)CSc3nnc(-c4ccc5[nH]c(C)c(C)c5c4)o3)CC2)cc1,"inconclusive: 0.73 µM [inhibitor, full curve]",–
Cc1cccc(N(C(=O)c2nsc(Cl)c2Cl)C(C(=O)NC2CCCC2)c2ccc(O)cc2)c1C (stereo unspecified),active: 7.31 µM,–
CCCOc1ccc(-c2csc(N)n2)cc1[N+](=O)[O-],"inconclusive: 3.98 µM [activator, single point]",–
Fc1ccccc1C(c1nnnn1Cc1ccc2c(c1)OCO2)N1CCN(Cc2ccco2)CC1 (stereo unspecified),"inconclusive: 22.4 µM [inhibitor, single point]",–
Oc1c(C(Nc2ccccn2)c2ccccc2F)ccc2cccnc12 (stereo unspecified),"inconclusive: 10 µM [inhibitor, partial curve, poor fit]",–
CC(C)CNC(=O)COC(=O)c1ccc(Cl)c(S(N)(=O)=O)c1,inactive,–
CN(C)S(=O)(=O)c1ccc(C(=O)Nc2ccn(C)n2)cc1,"inconclusive: 10 µM [activator, partial curve, poor fit]",–
CC1=CC(C)(C)NC(=S)N1c1ccc(Cl)cc1,–,inconclusive: 13% [activator] [at 46.1 µM]
Cc1noc(C)c1S(=O)(=O)N(CC(=O)Nc1ccc(F)cc1F)c1ccc(C(C)C)cc1,inactive,–
CCN1CCN(c2oc(-c3ccc(COc4ccccc4C)o3)nc2C#N)CC1,"inconclusive: 5.62 µM [inhibitor, single point]",–
Cc1ccc(-c2noc(CCCC(=O)NC3CCCCC3)n2)cc1,inactive,–
O=C(O)c1ccccc1C(=O)Nc1ccc(Br)c2cccnc12,"inconclusive: 7.94 µM [activator, partial curve]",–
Cc1nn(CCC(=O)NNC(=S)Nc2ccc(F)cc2)c(C)c1Br,"inconclusive: 7.08 µM [activator, full curve, poor fit]",–
COc1ccc(C)cc1NC(=O)c1ccc(CN2CCN(c3ccccc3)CC2)cc1,"inconclusive: 25.1 µM [inhibitor, single point]",–
